Experimental data reported in patent US20030211506.

Tests used:
Assay in all cases: activity assay
[1] = tested on: BbvCI #1-35 nicking mutant; conditions: SDA product 110-130 bp; 10 mM MgCl2, 50 mM KCl, 45 C; purified recombinant protein
[2] = tested on: BbvCI #2-12 nicking mutant; conditions: SDA product 110-130 bp; 5 mM MgCl2, 50 mM KCl, 45 C; purified recombinant protein
[3] = tested on: BsrFI restriction endonuclease; conditions: SDA product 150-500 bp, none without BsrFI; 2.5 mM MgCl2, 0-50 mM KCl, 55 C; purified native protein
[4] = tested on: T1, N.BstNBI nicking endonuclease (Bacillus stearothermophilus 33M); conditions: purified recombinant protein
T1 sequence: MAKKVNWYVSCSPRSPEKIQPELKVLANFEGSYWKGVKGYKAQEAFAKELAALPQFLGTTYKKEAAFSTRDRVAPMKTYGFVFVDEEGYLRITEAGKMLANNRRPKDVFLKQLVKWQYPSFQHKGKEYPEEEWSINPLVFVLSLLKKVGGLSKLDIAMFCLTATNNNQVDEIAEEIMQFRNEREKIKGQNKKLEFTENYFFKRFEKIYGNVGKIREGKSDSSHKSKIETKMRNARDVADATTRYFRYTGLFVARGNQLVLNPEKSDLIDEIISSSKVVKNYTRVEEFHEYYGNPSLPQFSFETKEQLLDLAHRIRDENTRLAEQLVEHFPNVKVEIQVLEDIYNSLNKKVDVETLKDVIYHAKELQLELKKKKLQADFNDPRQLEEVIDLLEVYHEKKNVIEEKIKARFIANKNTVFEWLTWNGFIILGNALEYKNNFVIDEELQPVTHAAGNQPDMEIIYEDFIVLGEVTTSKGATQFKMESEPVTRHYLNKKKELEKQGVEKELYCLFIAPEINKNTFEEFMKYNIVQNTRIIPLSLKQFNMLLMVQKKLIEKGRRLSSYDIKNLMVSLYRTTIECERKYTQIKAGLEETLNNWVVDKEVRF

[5] = tested on: N.MlyI nicking endonuclease; conditions: SDA product 110-130 bp; 5 mM MgCl2, 50 mM KCl, 53 C; purified recombinant protein
[6] = tested on: N.AlwI nicking endonuclease; conditions: SDA product 110-130 bp; 10 mM MgCl2, 0 mM KCl, 53 C; purified recombinant protein
[7] = SDA product 110-130 bp, 10 mM MgCl2, 100 mM KCl, 53 C
[8] = SDA with Bst DNA Pol gave 160 bp product, 2.5 mM MgCl2, 100 mM KCl, 55 C

ACCGCATCGAATATGTATCGCCCTCAGCTACGACGGCCAGTG (double strand) [P49 forward]
activity on this sequence [1]: active

ACCGCATCGAATATGTATCGCGCTGAGGTACGACGGCCAGTG (double strand) [P51 forward]
activity on this sequence [2]: active

ACCGCATCGAATGCATGTACCGGCTACGACGGCCAGTG (double strand) [P13 forward]
activity on this sequence [3]: active

ACCGCATCGAATGCGAGTCATGTTACGACGGCCAGTG (double strand) [P33 forward]
activity on this sequence [4, 7]: active
activity on this sequence [5]: active

ACCGCATCGAATGCGAGTCGAGGACGACGGCCAGTG (double strand) [SDA primer 40 site]
activity on this sequence [4, 8]: active

ACCGCATCGAATGCGGATCATGTTACGACGGCCAGTG (double strand) [P47 forward]
activity on this sequence [6]: active

CGATTCCGCAATGCGAGTCGAGGCCATGATTACGCCAA (double strand) [SDA primer 41 site]
activity on this sequence [4, 8]: active

CGATTCCGCTCCAGACTTACCGGCTCCATGATTACGCCAA (double strand) [P14 reverse]
activity on this sequence [3]: active

CGATTCCGCTCCAGACTTATCCCTCAGCTCCATGATTACGCCAA (double strand) [P50 reverse]
activity on this sequence [1]: active

CGATTCCGCTCCAGACTTATCGCTGAGGTCCATGATTACGCCAA (double strand) [P52 reverse]
activity on this sequence [2]: active

CGATTCCGCTCCAGGAGTCACTTTCCATGATTACGCCAA (double strand) [P34 reverse]
activity on this sequence [4, 7]: active
activity on this sequence [5]: active

CGATTCCGCTCCAGGGATCACTTTCCATGATTACGCCAA (double strand) [P48 reverse]
activity on this sequence [6]: active

For some assays here: Where a protein sequence is shown, tags need not be part of it. For some assays here: For at least one entry, the source does not settle the construct or the ends of the probe.
